This passage reports z-score results from PubChem BioAssay AID1508600 (Functional Genomics Laboratory (NCATS/FGL), 2020).

Among all 53,000 sequences or so, about 3,700 (7%) were called active.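 The calls were made as follows: active = gene knockdowns whose robust z-score for IL-1 alpha signal is at least 2 or at most -2, so actives lie on both sides; inactive = the rest.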 Some of the results follow.

The test is described as follows: Components of the Cytosolic LPS Sensing Pathway: Gene Identification via Genome-wide siRNA Screen.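 Also: robust z of the log signal after scaling to non-targeting control siRNA wells of the plate.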 Particulars: RAW264.7 macrophages, IL-1a HTRF, actives lie on both sides, screened at 100 nM (by protocol), cells primed 5 h with Pam3CSK4 first. Put shortly:
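Supernatant IL-1a by HTRF from RAW264.7 cells primed with Pam3CSK4 (5 hours) and transfected with LipidA (24 hour) after 48h siRNA knockdown at 100 nM; cell viability checked with CellTiter-Glo.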
In general terms: Time-resolved FRET reads energy transfer from a long-lived donor to a nearby acceptor.
Turning to GGAGACCAGUACCCUCUGATT against Cmklr1, the z-score was inactive: -0.422.
For the sequence GGAUAGAUUUUAGGUAUUGTT against Htr5b, the z-score is inactive: -0.475.
As to GGACUUCCACCGAAAGUUUTT against Rasd1, the z-score was inactive: -0.0323.
With GGAUUAUGUGAAAACUCUGTT against Sgpl1, the z-score is inactive: 1.71.
To GCAUCUUCGAGGUUUCAAATT against Ccdc136 belongs inactive: -0.514; to GGCUAUAGGUUUCUGGGAATT against Fzd6, active: 4.94; to GACCUUCCUGUCUGAGAUCTT against Ssbp4, inactive: 1.1.
For the sequence CCACAUUGUUUGGUAACCUTT against Olfr1489, the z-score is inactive: -0.631.
Take GGGUUUCACUUUCAGUGGGTT against Nol9: the z-score is inactive: 0.498.
Under GGAGUUCAACGAGAUCUGUTT against Hus1b stands inactive: 0.315.
Under CCAGAAAACUCAGUUUGAATT against Magi3 stands inactive: 0.518; under GGAUGUCAGAAAACAGUGCTT against Cd302, inactive: 0.918; under GGCAAGGAUUUUUCUACCUTT against Tslp, inactive: -0.555.
On to UUUUGCACAGACCAGGGAGTT against Aspscr1, for which the z-score was inactive: -0.261.
On to GGUUUAUCCAGGAAGUAUATT against Ptch1, for which the z-score was inactive: -0.0749.
In the case of GGCUGAAGAUCACCAAGAATT against Neurl1a, the z-score is inactive: -0.869.
For the sequence GAAAAGAGGAUUCCUUGCATT against Olfr1128, the z-score is inactive: 0.726.
To GGGUGAAUAAAUAAAGCUGTT against Cenps belongs inactive: -0.33; to GCGCAGAAGAGGCUAUUAUTT against Asprv1, inactive: -0.125; to GGAUGAAAGAAAAGAAACUTT against Hoxd11, inactive: -0.335.
As to GGACAGUGUAGUCAAAAAATT against Cx3cr1, the z-score is inactive: 0.149.
Under CCAUACCAUCUUUGAAACATT against Rpl21 stands inactive: -0.389.
For GGAUCAAAUAACAAUGACATT against Hfm1, the z-score is inactive: -0.567.
Take GAUGGUUGUAGACUUCUUATT against Olfr1216: the z-score was inactive: 0.136.
With CCCAUUCAAGCACUUAUGGTT against Emc4, the z-score was inactive: 0.736.
With CGACAGAGUGAAAAUUAAGTT against Setd3, the z-score is inactive: -0.937.
For the sequence GGCGCAAUGUCAAUGUGAATT against Gzmb, the z-score was inactive: 0.215.
In the case of CGCAUUAAGGGUUAAAGAATT against Plekhf1, the z-score was inactive: -0.225.
With UAACCAAGAGGGUAAAAAUTT against Adam26b, the z-score is inactive: -0.201.
Turning to CCUAUGAUUCAGCAAUACUTT against Col17a1, the z-score is inactive: 0.677.
Take CCAUGCCGCUUCUUAGUCATT against Oaz1: the z-score is inactive: -1.29.
For CCACCAAAGCAGCAGCCAATT against Polr2k, the z-score is inactive: -1.57.
Under CGUCUUCCCUGUUUACUUATT against Susd2 stands inactive: -0.283; under CCCAGUGCAUCGAAAAGCUTT against Kif21a, inactive: -1.14; under GGACAGUAAUAUGAUGAGCTT against Lzts1, inactive: -0.943.
Regarding GGUUCAGAAGGAAGUUUUGTT against Jmy, the z-score was inactive: 1.91.
Take GCCUACAUUCAACAAACGCTT against Gcnt2: the z-score is inactive: 0.445.
As for GGGCAUCAUAGACUGCGUGTT against Slc25a5, the z-score is inactive: -1.42.
As to GGAAUGUCAAUCUUGAGAGTT against Asprv1, the z-score was inactive: -0.812.
For the sequence GGAGGGAGCAGAUUGAAACTT against Eri2, the z-score is inactive: -0.281.
Under GGGUCGAAGGUCAGAACAATT against Ptprh stands inactive: 1.63.
Turning to GCUUGUUCACCCAGUUAUGTT against Hexdc, the z-score is inactive: 1.15.
As to GGUGAGCCUGGAAAAUUAUTT against Tspan6, the z-score is inactive: -0.623.
Under GCCGUUCAUUUCAACCGUGTT against Wdr5 stands inactive: -0.0339.
As to GCAGGUGAUUGUGAUUGAATT against Ddx46, the z-score is inactive: 0.842.
Turning to GGUACACUUUGAAGACAAUTT against Tmem72, the z-score was inactive: 1.47.
Regarding GCACUUUUCAGUGAUAACATT against Zbed5, the z-score was inactive: -0.405.
To GCGAAUGCAUGAAAACUCATT against Nkapd1 belongs inactive: -0.386; to GCUUGGCCGUGAUUGUUGCTT against Fndc10, active: 2.35; to GGUGCUGCAUGUGAAGAUGTT against Atf6b, inactive: 0.222.
Under GGAAGAAGAGCUCUUUAAATT against Acot9 stands inactive: 1.37; under GGAGAAUUACGGUGCCAACTT against Ncoa3, inactive: -0.354.
As to CCACAGAGUUCCUAUACAATT against Pfkl, the z-score was active: -2.52.
Under GCUACAGGAGUCGACUUCATT against Lef1 stands inactive: -0.348.
Under GGAAAGUGGACACCUUCCATT against Vezt stands inactive: 1.2; under GGUACAUAUGUGAUGACCGTT against Cdh4, inactive: -0.289; under GGAGCUUAAGCAGUUCACATT against Traf5, inactive: -1.06.
Under GGAUAAUCAUUCUUGUCACTT against Ptgfr stands inactive: -0.736; under CCAGUGUGAUCAAAAACACTT against Cc2d1a, inactive: 0.112; under GGACUAUAGAUCCUAAGUCTT against Kcnab2, inactive: -0.246.
As to GCGAGAGAUCCCUCUGAAATT against Pigs, the z-score is inactive: -0.284.
GCUGUACCUAGAACACAACTT against Fmod: the z-score is inactive: 1.7.
In the case of “CGGAAGGAGAGAAUGACAGTT against 1110008P14Rik”, the z-score was inactive: -0.901.
To GCAGCAGUUAAACAACCUUTT against Gstcd belongs inactive: 0.579; to CGCGAUUCAGCUCAUUCUCTT against Slitrk1, inactive: 0.83; to CCAACCUUGCCCAUUUCCATT against Lsp1, inactive: -0.779.
In the case of GCAGGCAUCAUUACAAAAATT against Gnl2, the z-score is inactive: 0.245.
For GGAAGCUACCCAGAUGGAUTT against Dgkd, the z-score was inactive: 1.14.
To GGAUGAGUUGUCAUUGAUATT against Nck1 belongs inactive: 0.998; to GAAGCUGUCCUCAGCUCCATT against Olfr491, inactive: -0.485; to GGUGUUUUUAUGUGAACUUTT against Homer2, inactive: 0.851.
Under GGAGGAAAAACAGUGCAGATT against Smchd1 stands inactive: -1.54; under GCCGAGCUCAUCAUCAUGATT against Prss40, active: 2.5; under GGCAUGCUGGAAUCAAACATT against Dppa2, inactive: 0.699.
As to GCUGAUCCACGACUACUUGTT against Rab10os, the z-score is inactive: 1.24.
CCUUCGUAAAACAGAUUGATT against Elp1: the z-score was inactive: 0.129.
For GGACAUCCGAGCCAUUCUATT against Spata2, the z-score is inactive: -0.408.
As for GACAAGCUGUGGAGAAGUGTT against Lce1b, the z-score was inactive: 0.298.
Turning to GCUAUUACGGUAAUCGAGCTT against Dnajc7, the z-score was inactive: 0.721.
Consider GGCAUCUGGUAACUUUUACTT against Trim59, for which the z-score was inactive: -0.451.
To GGAGCAAGCUCAGCUUACCTT against Ube3a belongs inactive: -0.207.
Regarding GCAAAAACCGUGAUGUGUATT against Lin37, the z-score was inactive: -0.836.
Regarding CCAAGUAUUACGGAACAUCTT against Ttc6, the z-score is inactive: -0.0894.
As for GGAAUAUGCAUAUUCAUGATT against Olfr350, the z-score was inactive: 0.723.
In the case of CCACUUUUAAAGGAAUGUGTT against Ncoa1, the z-score was inactive: 1.8.
For the sequence “GGAAGGUCAUGUGAAUAUCTT against A930002I21Rik”, the z-score is inactive: -1.6.
In the case of GGUCUAAGACUAAAUAUCCTT against Sfxn1, the z-score was inactive: 0.396.
Consider GGACUGACACGGGUGUCUUTT against Xxylt1, for which the z-score was inactive: -0.21.
As to GGCAUUGGAGAAUUGAAAATT against Sptlc2, the z-score was inactive: -0.101.
Turning to CCUUCAUCUAGAAACCAAGTT against Tmem161b, the z-score was inactive: -0.0464.
Consider GCAGCUGAAUACAGUCUGCTT against Nlrp9c, for which the z-score is inactive: -0.0389.
Consider GGAGCAACCAUCCUUGUAUTT against Tmem35a, for which the z-score was inactive: -0.525.
As to GCCAUGUACACAGACAGUUTT against Mcm10, the z-score is inactive: 0.553.
In the case of GGAUGAGGAGGUCUUUUCUTT against Pde6c, the z-score is inactive: 1.65.
Take CGCUGUUUGUUCAAGAGGATT against Thbs1: the z-score is inactive: 1.05.
On to GGCAUACAGUUUUGGCAGUTT against Pilra, for which the z-score is inactive: 0.0977.
Regarding GGGACUCCCAGGCUGUAAATT against Zfp263, the z-score is inactive: -1.38.
Under GGAAAACAAGAGGUGAUCUTT against Bfar stands inactive: -1.62; under GCUAUGGCGCAUACUGCCATT against Olfr881, inactive: 0.803; under GCCACUGCACUAUUUAACUTT against Olfr1247, inactive: -0.35.
For GGAAUAAAGAUUCCUCACATT against Teddm1a, the z-score is inactive: 0.113.
With “CGGAGUCUUCUUCUCACCUTT against A630001O12Rik”, the z-score was active: -2.82.
Under GGAUGAGGAAUUUUACACUTT against Klhl11 stands inactive: -0.256; under GGGAUGCGAGAUGAUCUGCTT against Scrg1, inactive: 0.172.
Regarding AGUCAAGACCCAUAGAAAATT against Ociad2, the z-score is inactive: -1.87.
As to GAGUGUCAGGUCCAAGUUATT against Vmn1r80, the z-score is inactive: 1.54.
With CCUUGUGGAUUCUCACUACTT against Gpn2, the z-score was inactive: -1.91.
